This series is described as follows: Fmoc solid-phase peptide synthesis; Amide Resin, 0.66 mmol/g. Particulars: whole synthesis, HPLC, scale of the general procedure 0.100 mmol; run 1.

Strings that start with PEPTIDE1 are HELM notation: dots part the residues, brackets hold end groups and non-standard residues.

In the case of “PEPTIDE1{Y.A.R.A.A.A.R.Q.A.R.A.H.P.R.N.P.A.R.R.T.P.G.T.R.R.G.A.P.A.A.[am]}$$$$V2.0”, the “purity (crude or final not stated)” value is on record as 100%.

These data come from patent US9309286B2 (TUFTS MEDICAL CENTER, priority 2011, dated 2016).
